Data published in patent US20140328850A1.
These are yes or no findings as the source states them, for the method shown. Some entries that bind do so weakly or less than the wild type.

Amino acid sequences for entries named in this document (tags omitted). A change or cut given only in a name is not applied to a line headed by its entry.
UniProt Q9ULZ1: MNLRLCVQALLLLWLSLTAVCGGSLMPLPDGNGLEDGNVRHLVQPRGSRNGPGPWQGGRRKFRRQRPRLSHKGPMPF

Molecular target: apelin (UniProt Q9ULZ1)
Assay: ELISA on biotinylated apelin peptides captured on neutravidin plates

B1: antibody A (Ab A) (antibody, V domains shown)
VH: NVQLVESGGGLVKPGGSLKLSCVASGFIFSDYVMSWVRQTPEKRLEWVATISDGGIYTSYPDNIKGRFTISRDNANNKLYLQMSHLRSEDTAMYFCSRAAITSDDFDFWGQGTALTVSS
VL: DIVMSQSPSSLAVSAGEKVTMSCKSSQSLLDSRTRKNYLAWYQQKPGQSPKLLISWASIRESGVPDRFTGSGSGTDFTLSISSVQAEDLAVYYCKQSYYLLTFGAGTKLELKR
binding: binds
